PubChem BioAssay AID1671195, Yale University – 2021
Shown is one part, drawn at random, of about 22,000 deposited reagents. Of all reagents, about 1,510 (6.9%) got an active call. 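Active includes knockdowns raising or lowering LDL uptake; positive z-scores mean more uptake, negative mean less.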 Entries without a mark were called inactive.

- Aim: 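Regulators of LDL receptor activity judged by labelled LDL uptake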 (primary screen)
- Cells: human Huh7 hepatoma cells
- Reagents: siRNA pool against human genes, 18 nM
- Duration: about 2 to 2.5 days of knockdown, then 8 h LDL uptake
- Challenge: DiI-labelled LDL at 30 µg/ml for 8 h, in lipoprotein-deficient serum medium
- Measurement: 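Per-cell DiI-LDL intensity by automated imaging; well means scaled to the plate median and given as a robust z-score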
- Direction: robust z-score: higher = more LDL uptake after knockdown
- Call rule: 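Active when two or more replicates show a robust z-score above 2 or below -2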

no.	target	robust z-score, replicate 1	robust z-score, replicate 2	robust z-score, replicate 3
1	LOC153910	0.351	-0.521	0.611
2	KRTAP9-3	-0.116	0.182	0.144
3	ST6GALNAC6	-1.09	-1.18	-1.01
4	PRR7	0.885	0.0834	0.57
5	TENT5B	-0.0204	1.68	1.54
6	PAK2	1.48	1.63	1.68
7	LOC402157 (retired record)	0.323	0.796	0.705
8	TRMT11	-0.224	0.86	-0.0192
9	NCKIPSD	-0.43	-0.378	0.443
10	LOC441995 (retired record)	0.131	0.449	0.845
11	ZNF653	-0.359	-0.0251	-0.473
12	KLHDC4	-1.3	-2.06	-1.03
13	AKAP3	-0.543	0.166	0.593
14	PLXDC1	0.199	0.982	1.13
15	ZNF20	-0.214	-0.363	-0.196
16	LOC401545 (retired record)	1.59	1.09	2.03
17	PAX9	-1.49	-1.5	-1.37
18	KYAT1	-0.903	-0.38	-0.602
19	FAM222A	-0.446	0.567	-0.277
20	LINC01122	0.134	0.223	0.353
21	ZNF354A	-0.135	-0.19	-0.787
22	PHAX	-1.45	-2.45	-1.11
23	NRCAM	-1.14	-0.286	0.656
24	RNF122	0.0552	0.0445	-0.297
25	LOC442452 (retired record)	-0.746	-0.501	-0.839
26	THEMIS2	-0.708	0.13	-1.34
27	LSM8	-0.378	-0.979	-1.31
28	EMC8	1.46	1.5	0.131

An excerpt from above, showing only “robust z-score, replicate 1”.
ZNF354A = -0.135
PHAX = -1.45
